Experiment [1] addresses T1, RAPTOR1B, full-length cDNA in pDEST32 (DBD fusion) for the targeted Y2H (Arabidopsis) (UniProt Q93YQ1).
T1 sequence: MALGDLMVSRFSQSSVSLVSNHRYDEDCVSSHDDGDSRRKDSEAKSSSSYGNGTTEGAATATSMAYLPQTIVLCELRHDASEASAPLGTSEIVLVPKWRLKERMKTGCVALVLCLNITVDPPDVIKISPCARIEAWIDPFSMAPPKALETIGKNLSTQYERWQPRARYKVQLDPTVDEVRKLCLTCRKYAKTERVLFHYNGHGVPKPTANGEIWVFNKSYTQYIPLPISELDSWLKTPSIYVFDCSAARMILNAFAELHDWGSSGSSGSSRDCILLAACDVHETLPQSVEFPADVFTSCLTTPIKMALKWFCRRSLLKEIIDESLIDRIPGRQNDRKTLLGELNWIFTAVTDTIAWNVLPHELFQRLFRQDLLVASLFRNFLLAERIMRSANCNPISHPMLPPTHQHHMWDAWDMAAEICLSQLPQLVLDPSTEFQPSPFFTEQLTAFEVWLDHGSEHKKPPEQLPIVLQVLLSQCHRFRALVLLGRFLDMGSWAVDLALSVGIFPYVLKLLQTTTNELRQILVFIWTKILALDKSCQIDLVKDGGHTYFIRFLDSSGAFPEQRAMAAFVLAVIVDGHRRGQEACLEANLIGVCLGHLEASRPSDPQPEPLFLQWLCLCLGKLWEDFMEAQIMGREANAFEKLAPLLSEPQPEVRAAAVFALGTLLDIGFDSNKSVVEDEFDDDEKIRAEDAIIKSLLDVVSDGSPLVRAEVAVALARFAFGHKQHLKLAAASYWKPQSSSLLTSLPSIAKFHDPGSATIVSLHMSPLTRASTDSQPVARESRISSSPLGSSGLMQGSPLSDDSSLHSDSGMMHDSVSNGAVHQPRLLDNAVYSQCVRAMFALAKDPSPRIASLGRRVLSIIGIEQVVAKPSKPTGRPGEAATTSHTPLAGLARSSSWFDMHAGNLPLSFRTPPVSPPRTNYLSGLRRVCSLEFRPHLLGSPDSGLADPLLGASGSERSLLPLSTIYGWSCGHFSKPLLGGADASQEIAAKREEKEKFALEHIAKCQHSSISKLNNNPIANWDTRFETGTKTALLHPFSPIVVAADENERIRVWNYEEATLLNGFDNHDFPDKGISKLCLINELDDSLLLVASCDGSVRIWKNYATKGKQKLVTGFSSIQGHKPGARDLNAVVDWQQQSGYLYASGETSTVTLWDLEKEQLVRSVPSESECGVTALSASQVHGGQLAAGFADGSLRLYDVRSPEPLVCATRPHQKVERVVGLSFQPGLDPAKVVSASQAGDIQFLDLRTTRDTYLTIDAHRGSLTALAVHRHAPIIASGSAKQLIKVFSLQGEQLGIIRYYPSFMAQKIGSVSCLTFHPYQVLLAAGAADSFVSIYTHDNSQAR
Nature of the experiment: two-hybrid.

The target in experiment [2] is T2, nYFP-RAPTOR1B (Arabidopsis) (UniProt Q93YQ1).
T2 sequence: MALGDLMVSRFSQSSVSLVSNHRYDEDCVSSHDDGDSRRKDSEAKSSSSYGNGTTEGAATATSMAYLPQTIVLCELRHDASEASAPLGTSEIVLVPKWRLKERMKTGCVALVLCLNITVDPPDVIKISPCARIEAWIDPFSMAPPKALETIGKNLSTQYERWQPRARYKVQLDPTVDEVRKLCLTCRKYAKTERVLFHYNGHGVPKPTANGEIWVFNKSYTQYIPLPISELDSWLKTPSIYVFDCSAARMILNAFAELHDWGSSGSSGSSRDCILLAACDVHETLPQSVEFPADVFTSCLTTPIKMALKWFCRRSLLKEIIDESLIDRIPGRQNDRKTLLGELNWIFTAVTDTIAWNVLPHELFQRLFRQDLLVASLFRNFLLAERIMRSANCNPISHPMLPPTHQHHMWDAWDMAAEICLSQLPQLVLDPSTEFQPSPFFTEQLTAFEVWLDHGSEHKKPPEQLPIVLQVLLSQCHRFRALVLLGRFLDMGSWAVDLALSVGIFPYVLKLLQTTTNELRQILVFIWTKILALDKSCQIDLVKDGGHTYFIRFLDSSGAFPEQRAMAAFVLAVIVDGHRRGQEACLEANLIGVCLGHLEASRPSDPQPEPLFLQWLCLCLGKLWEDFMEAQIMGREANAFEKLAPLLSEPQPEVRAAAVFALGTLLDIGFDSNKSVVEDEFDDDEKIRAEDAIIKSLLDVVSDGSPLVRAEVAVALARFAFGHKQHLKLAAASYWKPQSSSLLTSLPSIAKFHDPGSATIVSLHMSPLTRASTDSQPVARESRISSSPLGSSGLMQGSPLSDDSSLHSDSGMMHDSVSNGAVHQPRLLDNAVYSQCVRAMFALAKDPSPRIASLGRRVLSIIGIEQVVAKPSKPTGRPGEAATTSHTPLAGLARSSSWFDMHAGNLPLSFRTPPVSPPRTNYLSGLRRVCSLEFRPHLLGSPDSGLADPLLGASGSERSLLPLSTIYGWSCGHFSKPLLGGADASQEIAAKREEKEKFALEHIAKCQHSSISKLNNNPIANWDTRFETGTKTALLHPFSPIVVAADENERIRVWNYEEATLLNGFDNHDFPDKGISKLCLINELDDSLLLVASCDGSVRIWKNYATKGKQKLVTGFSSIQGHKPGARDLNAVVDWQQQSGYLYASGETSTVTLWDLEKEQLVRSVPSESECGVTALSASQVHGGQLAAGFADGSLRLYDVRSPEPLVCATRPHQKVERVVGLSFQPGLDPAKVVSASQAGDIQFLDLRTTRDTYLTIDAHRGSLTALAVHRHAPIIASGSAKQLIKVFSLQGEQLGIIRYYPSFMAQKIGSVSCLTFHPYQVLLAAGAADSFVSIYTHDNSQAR
Nature of the experiment: split reporter.

The source of these data is paper doi:10.1101/2023.08.14.553285.

No constants are given. Whether binding was seen depends on the method and setting. For part of these data: In cells and extracts the contact can be indirect. Some binding calls cover weakened binding; strength is not graded here. Where a sequence is shown, tags or fusion partners need not be part of it.

B1: FLZ14, full-length cDNA in pDEST22 (AD fusion) for the targeted Y2H (protein, UniProt Q8GYX2 1-248)
chain: MLTKRTHPMIGKISELLVGVNRSTAAPFFDVLMTSPKSPLDFKILPQISQRNSSKRFYDDNLGGSVGLGIVAALENSNTRRITSVCRSEPNQPGRSDPVQFMSHGGSTDGEDEEMFIMDEEDYTLVTCHHGPSGSCNTRVYDKDGFECFSSKINDDRRERLFVVDVVTESPENSPEFQGLGFLNSCYLCRKKLHGQDIFIYRGEKAFCSTECRSSHIANDERKERCRSKFSTSPYTAGQIFSTGVLVT
As to B1, the binding result in experiment [1] is reported as “binds”.

B2: FLZ14-cYFP (protein, UniProt Q8GYX2 1-248)
chain: MLTKRTHPMIGKISELLVGVNRSTAAPFFDVLMTSPKSPLDFKILPQISQRNSSKRFYDDNLGGSVGLGIVAALENSNTRRITSVCRSEPNQPGRSDPVQFMSHGGSTDGEDEEMFIMDEEDYTLVTCHHGPSGSCNTRVYDKDGFECFSSKINDDRRERLFVVDVVTESPENSPEFQGLGFLNSCYLCRKKLHGQDIFIYRGEKAFCSTECRSSHIANDERKERCRSKFSTSPYTAGQIFSTGVLVT
Turning to B2, the binding result in experiment [2] is listed as “binds”.

B3: cYFP-FLZ14 (protein, UniProt Q8GYX2 1-248)
chain: MLTKRTHPMIGKISELLVGVNRSTAAPFFDVLMTSPKSPLDFKILPQISQRNSSKRFYDDNLGGSVGLGIVAALENSNTRRITSVCRSEPNQPGRSDPVQFMSHGGSTDGEDEEMFIMDEEDYTLVTCHHGPSGSCNTRVYDKDGFECFSSKINDDRRERLFVVDVVTESPENSPEFQGLGFLNSCYLCRKKLHGQDIFIYRGEKAFCSTECRSSHIANDERKERCRSKFSTSPYTAGQIFSTGVLVT
Take B3: the binding entry in experiment [2] was “binds”.
